Our source for the binding values is PMC2785718, “Structure/function studies of dogfish α-crystallin, comparison with bovine α-crystallin” (Molecular Vision, 2009).

No constants are given. Whether binding was seen depends on the method and setting. Some binding calls cover weakened binding; strength is not graded here.

The target of the assay is T1, dogfish αB-crystallin (spiny dogfish (endogenous in lens)) (UniProt P02512).
T1 sequence: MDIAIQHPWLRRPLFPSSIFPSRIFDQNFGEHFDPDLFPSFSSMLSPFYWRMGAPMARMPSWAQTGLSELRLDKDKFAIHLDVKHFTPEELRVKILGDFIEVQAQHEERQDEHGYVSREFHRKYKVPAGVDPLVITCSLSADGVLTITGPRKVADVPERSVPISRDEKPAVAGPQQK
The assay is described as follows: AUC; sedimentation velocity of the isolated native α-crystallin; both purified.

B1: dogfish αA-crystallin (natural protein, spiny dogfish (endogenous in lens), UniProt P02509 1-177, looked up)
chain: MDLAIQYPWFRRSLGSFYPSRLFDQFFGEGLFDYDLFPFFSSTISPYYRQSVFRNFLDSGISEVRSEKDRFMINLNVKHFSPEELSVKIVDDYVEIHGKHAERQEDQGRVSREFHRTYHLPSNLNESAIACSLSNEGLLTLCCPKTRPGDDSNWQDRPIPVSREEKQGTQPEIRADP
notes: αA-crystallin polypeptide of spiny dogfish lens α-crystallin; native subunit, not separated from αB-crystallin; tryptophan at positions 9 and 154; Native polypeptide from lens; also called αA chain; αA-crystallin subunit
Turning to B1, the binding entry is on record as “binds”.
